# Laboratory results taken from patent US20140322315A1, “CYSTEAMINE AND/OR CYSTAMINE FOR TREATING ISCHEMIC INJURY” (The Regents of the University of California, priority 2011, published 2014).
# Tested on: LAD artery ligation ischemia/reperfusion
# Experiment: Myocardial ischemia/reperfusion (LAD artery ligation) in mice: infarct area, echocardiography
# Format: in vivo, mice (C57BL/6)
# Description: To analyze ischemic damage and treatment with cysteamine a study in mice (C57BL/6-Male-12 weeks, 25 g) that are either pre-treated or naïve to cysteamine bitartrate was performed as follows.
# Pre-treated animals received intra-peritoneal cysteamine, 60 mg/kg twice (120 mg/kg/day) 2 hours before surgery for LAD artery ligation. Following a 60 minute ligation period the obstruction was removed and another dose of cysteamine was given immediately at the time of reperfusion and also twice daily injections for 4 days following reperfusion. A control group received the same volumes of control IV solution injected instead of cysteamine. Acceptable volumes of blood were collected at baseline, and at predetermined time points after the ischemic insult in order to determine levels of surrogate markers of inflammation and plasma cysteamine. […] Before sacrifice, the LAD was re-occluded and Evan's Blue was injected through JVC in order to delineate the non-ischemic area. […] Echocardiography provided ventricular volume data as well as wall function. Hemodynamic studies provided muscle contractility data (specifically systolic data).
# So far seven mice were studied. Four received control solution and 3 received cysteamine. […] This is a reduction of 13%.
smiles,measurement,setting,value
"NCCS [cysteamine, Cysteamine]",AAR/LV (cysteamine) (%),MEAN of 3 mice,23.86%
same,AAR/LV (cysteamine) (%),individual mice (raw data),33.31% and 17.95% and 20.31%

# Several values for one entry are separate records, joined by “and”; a condition that tells them apart may be missing. Identical values can stand only once.
